Data reported in the supplement of paper PMC10849652.
The list shows a part of the results.

By UniProt entry, the sequences of proteins in these tests, tags left out. Where a name states a change or a piece, a line headed by the entry shows the natural chain unless it says otherwise.
UniProt Q6IPR1: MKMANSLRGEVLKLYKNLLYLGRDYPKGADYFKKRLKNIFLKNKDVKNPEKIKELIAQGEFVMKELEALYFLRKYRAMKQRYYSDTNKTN
UniProt Q86V87: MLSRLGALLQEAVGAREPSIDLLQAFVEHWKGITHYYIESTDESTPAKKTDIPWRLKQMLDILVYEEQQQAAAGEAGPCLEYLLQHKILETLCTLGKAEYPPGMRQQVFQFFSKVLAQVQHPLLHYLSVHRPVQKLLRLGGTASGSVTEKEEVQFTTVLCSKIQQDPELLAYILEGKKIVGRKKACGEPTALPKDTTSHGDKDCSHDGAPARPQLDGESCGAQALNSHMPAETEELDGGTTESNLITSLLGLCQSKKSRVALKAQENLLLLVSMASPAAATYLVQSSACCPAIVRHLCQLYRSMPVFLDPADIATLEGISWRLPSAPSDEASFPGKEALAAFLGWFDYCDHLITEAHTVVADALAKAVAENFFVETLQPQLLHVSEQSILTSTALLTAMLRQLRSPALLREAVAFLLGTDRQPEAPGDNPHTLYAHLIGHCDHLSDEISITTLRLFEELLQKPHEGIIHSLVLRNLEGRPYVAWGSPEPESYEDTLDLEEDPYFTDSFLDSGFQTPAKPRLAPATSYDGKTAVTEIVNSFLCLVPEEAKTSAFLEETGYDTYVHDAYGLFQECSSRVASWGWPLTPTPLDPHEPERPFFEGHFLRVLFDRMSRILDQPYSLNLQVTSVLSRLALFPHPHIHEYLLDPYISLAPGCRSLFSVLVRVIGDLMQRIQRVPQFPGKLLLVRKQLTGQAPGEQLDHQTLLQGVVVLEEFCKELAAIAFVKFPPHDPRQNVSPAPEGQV
UniProt Q8N0U4: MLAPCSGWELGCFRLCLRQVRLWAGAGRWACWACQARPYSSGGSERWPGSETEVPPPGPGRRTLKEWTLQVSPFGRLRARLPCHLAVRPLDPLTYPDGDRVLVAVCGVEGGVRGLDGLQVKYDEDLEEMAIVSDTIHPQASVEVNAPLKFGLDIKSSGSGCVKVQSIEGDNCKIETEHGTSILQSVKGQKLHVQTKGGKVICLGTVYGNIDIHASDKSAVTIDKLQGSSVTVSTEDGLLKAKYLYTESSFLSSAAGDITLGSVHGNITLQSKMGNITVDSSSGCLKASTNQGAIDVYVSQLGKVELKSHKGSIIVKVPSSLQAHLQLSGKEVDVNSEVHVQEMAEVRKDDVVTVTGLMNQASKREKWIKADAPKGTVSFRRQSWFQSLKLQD
UniProt Q6P1L5: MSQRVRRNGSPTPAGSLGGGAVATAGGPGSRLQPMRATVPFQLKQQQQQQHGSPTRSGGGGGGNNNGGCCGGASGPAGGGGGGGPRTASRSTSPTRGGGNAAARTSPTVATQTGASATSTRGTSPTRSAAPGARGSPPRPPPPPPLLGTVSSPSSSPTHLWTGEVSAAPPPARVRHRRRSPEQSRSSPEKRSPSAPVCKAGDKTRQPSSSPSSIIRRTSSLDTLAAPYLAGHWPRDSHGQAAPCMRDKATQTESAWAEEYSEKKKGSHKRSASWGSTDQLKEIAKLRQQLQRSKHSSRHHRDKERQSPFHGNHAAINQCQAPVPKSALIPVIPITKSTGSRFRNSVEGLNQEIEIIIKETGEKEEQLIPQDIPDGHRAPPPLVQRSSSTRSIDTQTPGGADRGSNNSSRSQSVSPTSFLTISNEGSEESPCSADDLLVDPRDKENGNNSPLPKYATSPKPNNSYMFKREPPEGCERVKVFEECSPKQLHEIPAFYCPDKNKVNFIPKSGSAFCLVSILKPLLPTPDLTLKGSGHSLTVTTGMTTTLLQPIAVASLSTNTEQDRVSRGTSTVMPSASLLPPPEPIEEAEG
UniProt Q9BYI3: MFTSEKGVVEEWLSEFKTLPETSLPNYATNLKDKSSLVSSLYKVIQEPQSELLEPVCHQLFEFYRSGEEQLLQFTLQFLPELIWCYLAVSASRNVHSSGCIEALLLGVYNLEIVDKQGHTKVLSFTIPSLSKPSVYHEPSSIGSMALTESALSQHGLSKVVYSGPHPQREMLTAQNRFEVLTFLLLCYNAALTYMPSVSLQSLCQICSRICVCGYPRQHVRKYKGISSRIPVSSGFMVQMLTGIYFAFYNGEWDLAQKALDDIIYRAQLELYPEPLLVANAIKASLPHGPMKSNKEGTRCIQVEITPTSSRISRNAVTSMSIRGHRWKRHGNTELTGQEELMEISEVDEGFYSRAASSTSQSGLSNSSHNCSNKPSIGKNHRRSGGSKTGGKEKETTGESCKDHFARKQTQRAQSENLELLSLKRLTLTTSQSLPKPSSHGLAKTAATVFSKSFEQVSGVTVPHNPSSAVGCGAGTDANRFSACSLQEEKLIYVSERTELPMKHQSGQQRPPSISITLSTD
UniProt O75460: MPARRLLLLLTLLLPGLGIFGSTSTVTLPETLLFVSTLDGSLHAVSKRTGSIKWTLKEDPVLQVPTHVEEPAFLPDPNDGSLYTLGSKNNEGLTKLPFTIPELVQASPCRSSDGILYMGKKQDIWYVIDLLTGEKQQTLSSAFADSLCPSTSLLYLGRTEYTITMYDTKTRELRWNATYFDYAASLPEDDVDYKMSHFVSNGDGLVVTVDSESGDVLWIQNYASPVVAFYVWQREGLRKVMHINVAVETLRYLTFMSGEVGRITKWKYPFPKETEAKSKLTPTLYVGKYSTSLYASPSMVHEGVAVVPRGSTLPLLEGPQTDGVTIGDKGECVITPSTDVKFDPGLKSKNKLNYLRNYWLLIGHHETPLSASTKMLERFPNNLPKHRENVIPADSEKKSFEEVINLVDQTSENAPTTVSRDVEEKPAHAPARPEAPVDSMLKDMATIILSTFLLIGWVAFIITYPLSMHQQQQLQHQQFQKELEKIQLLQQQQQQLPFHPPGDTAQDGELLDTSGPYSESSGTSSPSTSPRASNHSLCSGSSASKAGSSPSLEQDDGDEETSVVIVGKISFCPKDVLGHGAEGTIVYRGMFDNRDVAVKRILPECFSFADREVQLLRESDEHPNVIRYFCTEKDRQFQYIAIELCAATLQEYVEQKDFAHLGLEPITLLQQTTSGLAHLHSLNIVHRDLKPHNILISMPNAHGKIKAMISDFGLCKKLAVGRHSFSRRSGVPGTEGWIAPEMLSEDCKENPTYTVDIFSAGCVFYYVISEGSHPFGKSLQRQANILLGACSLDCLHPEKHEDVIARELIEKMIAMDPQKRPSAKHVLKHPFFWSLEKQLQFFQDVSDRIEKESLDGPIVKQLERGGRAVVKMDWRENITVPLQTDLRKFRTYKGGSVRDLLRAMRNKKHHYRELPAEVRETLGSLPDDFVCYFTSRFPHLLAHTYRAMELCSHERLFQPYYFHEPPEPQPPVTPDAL
UniProt Q9NWS6: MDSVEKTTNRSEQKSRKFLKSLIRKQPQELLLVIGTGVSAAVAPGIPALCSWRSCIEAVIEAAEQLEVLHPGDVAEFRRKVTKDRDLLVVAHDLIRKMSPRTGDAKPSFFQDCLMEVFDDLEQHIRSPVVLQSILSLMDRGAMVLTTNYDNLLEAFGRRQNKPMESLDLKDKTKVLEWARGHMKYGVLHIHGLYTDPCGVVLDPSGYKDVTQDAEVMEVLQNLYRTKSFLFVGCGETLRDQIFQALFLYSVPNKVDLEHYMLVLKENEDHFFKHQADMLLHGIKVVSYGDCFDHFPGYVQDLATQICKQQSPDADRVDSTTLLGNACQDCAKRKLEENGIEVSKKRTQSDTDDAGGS
UniProt Q01780: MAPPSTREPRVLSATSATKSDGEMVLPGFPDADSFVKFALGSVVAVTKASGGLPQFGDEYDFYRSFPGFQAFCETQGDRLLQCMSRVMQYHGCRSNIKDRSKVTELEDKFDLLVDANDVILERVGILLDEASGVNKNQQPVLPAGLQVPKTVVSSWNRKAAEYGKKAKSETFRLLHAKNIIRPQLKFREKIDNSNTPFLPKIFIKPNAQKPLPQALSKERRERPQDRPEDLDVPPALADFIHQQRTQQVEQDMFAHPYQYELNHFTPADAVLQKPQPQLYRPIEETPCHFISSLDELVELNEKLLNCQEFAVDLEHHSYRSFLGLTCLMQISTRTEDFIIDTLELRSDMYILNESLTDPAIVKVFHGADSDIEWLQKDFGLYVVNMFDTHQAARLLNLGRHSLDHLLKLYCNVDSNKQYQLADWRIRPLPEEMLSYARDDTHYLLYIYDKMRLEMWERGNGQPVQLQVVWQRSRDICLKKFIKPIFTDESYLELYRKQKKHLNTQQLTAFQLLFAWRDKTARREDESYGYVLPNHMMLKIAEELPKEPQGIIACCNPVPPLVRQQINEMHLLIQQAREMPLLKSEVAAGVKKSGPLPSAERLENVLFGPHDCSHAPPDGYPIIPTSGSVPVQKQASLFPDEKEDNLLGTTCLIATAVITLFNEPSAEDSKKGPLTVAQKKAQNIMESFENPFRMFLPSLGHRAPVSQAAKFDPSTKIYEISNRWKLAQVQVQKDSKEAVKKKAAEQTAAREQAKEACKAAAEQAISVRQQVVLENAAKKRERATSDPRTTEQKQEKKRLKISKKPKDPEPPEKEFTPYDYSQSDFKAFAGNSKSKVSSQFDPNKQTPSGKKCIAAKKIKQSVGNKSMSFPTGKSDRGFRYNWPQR
UniProt P05413, whole entry, looked up: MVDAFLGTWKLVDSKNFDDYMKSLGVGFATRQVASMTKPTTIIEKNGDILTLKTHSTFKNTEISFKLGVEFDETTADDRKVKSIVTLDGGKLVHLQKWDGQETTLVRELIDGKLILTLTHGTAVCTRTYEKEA
UniProt Q6P179: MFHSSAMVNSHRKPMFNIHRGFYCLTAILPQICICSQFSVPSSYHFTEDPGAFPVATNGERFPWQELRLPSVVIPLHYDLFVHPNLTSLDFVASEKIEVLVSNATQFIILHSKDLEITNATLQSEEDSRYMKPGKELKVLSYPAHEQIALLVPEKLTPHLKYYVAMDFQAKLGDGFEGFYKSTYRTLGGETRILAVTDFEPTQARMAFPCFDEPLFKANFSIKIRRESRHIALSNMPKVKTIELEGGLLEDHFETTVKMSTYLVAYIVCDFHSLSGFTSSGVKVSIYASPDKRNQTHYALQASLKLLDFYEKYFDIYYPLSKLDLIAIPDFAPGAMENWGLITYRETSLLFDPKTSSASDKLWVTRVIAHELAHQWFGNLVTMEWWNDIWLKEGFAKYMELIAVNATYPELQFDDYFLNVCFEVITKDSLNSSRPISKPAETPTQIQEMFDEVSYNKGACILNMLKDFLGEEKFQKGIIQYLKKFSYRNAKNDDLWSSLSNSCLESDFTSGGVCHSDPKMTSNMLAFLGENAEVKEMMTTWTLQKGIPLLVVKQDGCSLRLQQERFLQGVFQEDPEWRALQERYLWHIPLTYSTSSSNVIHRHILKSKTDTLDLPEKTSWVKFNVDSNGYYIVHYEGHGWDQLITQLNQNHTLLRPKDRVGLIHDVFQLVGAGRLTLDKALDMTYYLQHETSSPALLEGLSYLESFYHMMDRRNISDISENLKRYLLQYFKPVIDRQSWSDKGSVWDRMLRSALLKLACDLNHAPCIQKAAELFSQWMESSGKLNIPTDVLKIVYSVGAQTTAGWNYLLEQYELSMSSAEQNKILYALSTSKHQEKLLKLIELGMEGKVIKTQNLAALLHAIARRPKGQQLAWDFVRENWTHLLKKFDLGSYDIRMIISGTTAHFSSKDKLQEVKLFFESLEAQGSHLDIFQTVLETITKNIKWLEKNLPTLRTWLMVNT
UniProt P00488: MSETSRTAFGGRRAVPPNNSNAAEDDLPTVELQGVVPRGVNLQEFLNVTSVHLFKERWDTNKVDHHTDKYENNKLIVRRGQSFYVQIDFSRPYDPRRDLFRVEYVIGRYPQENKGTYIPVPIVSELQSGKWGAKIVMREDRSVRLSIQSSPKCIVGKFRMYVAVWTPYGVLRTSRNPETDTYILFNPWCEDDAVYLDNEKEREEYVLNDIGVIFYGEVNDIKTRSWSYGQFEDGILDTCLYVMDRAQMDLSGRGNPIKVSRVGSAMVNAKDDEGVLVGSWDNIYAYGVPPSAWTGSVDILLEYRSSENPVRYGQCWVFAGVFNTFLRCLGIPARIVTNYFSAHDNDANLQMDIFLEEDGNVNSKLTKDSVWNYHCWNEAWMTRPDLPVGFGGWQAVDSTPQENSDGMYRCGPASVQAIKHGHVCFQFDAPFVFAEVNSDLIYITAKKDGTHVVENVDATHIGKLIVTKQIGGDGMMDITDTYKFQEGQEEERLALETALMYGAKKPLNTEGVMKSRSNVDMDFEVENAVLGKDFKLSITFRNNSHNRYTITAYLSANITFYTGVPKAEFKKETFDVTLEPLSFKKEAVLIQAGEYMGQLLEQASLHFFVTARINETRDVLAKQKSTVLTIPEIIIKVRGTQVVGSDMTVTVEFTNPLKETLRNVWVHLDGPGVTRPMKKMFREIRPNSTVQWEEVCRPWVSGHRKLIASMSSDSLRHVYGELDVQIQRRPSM

What was measured:
Test in all cases: log2 fold change, soluble protein after heating vs DMSO (PISA); higher = thermal stabilisation; K562 cells, 10 uM, 30 min; active = over 0.2 and 3.5 SD of the protein, either way, in both replicates (recomputed)
[1] = compound: CC[C@@H]1C(=O)N(C)c2cnc(Nc3ccc(C(=O)N[C@H]4CC[C@H](N5CCN(CC6CC6)CC5)CC4)cc3OC)nc2N1C(C)C [volasertib]
How it was run: (§1)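 Aliquots of K562 cells (2×10^6 cells/mL) treated with 10 μM compound for 30 min were heated for 3 min over 48°C-58°C. After pooling and extraction in PBS with 0.5% NP-40 at 4°C, soluble protein from a 21,000xg, 90 min spin was quantified by TMTpro 16plex LC-MS/MS with channel sums equalised. Thermal stability is expressed against control samples, from duplicates, as a log2 fold change.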

[2] = compound: CC[C@H](C)N1C=C(C2=C(C=C(C=C21)C3=CN=C(C=C3)N4CCNCC4)C(=O)NCC5=C(C=C(NC5=O)C)C)C
How it was run: as §1

[3] = compound: CC[C@H](C)[C@@H](C(=O)N[C@@H]([C@@H](C)O)C(=O)N[C@@H](CC(C)C)C(=O)[C@]1(CO1)C)NC(=O)[C@H]([C@@H](C)CC)N(C)C(=O)C [epoxomicin]
How it was run: as §1

[4] = compound: CCn1c(C(=O)N(C2CC2)C2CC2)cc2c3c(ncn3C)c(Nc3cc(C)n(C)n3)nc21
How it was run: as §1

[5] = compound: CCn1cc(-c2ccnc3[nH]c(-c4cccc(CN(C)C)c4)cc23)c(-c2ccc(NC(=O)N(C)C)cc2)n1
How it was run: as §1

[6] = compound: CN(C)CC(=O)Nc1ccc2[nH]c(=O)c3ccccc3c2c1
How it was run: as §1

[7] = compound: CN(CCOC1=CC=C(C=C1)C[C@H]2C(=O)NC(=O)S2)C3=CC=CC=N3 (racemic) [rosiglitazone]
How it was run: as §1

[8] = compound: CN1C2=C(C3=C1C(=O)N(N=C3)CC4=CC(=CC=C4)N)SC(=C2)S(=O)C
How it was run: as §1

[9] = compound: CN1CCC(CNc2ccc3ncc(-c4cccc(OC(F)(F)F)c4)n3n2)CC1
How it was run: as §1

[10] = compound: CN1CCN(CCOc2cc(OC3CCOCC3)c3c(Nc4c(Cl)ccc5c4OCO5)ncnc3c2)CC1 [saracatinib]
How it was run: as §1

[11] = compound: CN1CCN(c2nc(C3=C(c4c[nH]c5ccccc45)C(=O)NC3=O)c3ccccc3n2)CC1 [sotrastaurin]
How it was run: as §1

[12] = compound: CN1CC[C@H](c2c(O)cc(O)c3c(=O)cc(-c4ccccc4Cl)oc23)[C@H](O)C1 [alvocidib]
How it was run: as §1

[13] = compound: CN1CCc2c(c3ccccc3n2Cc2ccc(C(=O)NO)cc2)C1 [Tubastatin A]
How it was run: as §1

[14] = compound: CNC(=O)C1=CC=CC=C1NC2=NC(=NC=C2Cl)NC3=C(C=C(C=C3)N4CCOCC4)OC
How it was run: as §1

[15] = compound: CNC(=O)c1ccc(Nc2ncc(C(F)(F)F)c(NCc3nccnc3N(C)S(C)(=O)=O)n2)cc1 [defactinib]
How it was run: as §1

[16] = compound: CNc1nc(-c2ccc3c(N)n[nH]c3c2)cc(N2C[C@@H](C(=O)NC3CCCCC3)CC[C@H]2C)n1
How it was run: as §1

[17] = compound: COC(=O)[C@H](CCSC)NC(=O)C1=C(C=C(C=C1)NC[C@H](CS)N)C2=CC=CC=C2
How it was run: as §1

[18] = compound: CC[C@@H]1C(=O)N(C)c2cnc(Nc3ccc(C(=O)NC4CCN(C)CC4)cc3OC)nc2N1C1CCCC1
How it was run: as §1

[19] = compound: CNCc1ccc(-c2[nH]c3cc(F)cc4c3c2CCNC4=O)cc1 [rucaparib]
How it was run: as §1

[20] = compound: COC(=O)N[C@@H](C)CNc1nccc(-c2cn(C(C)C)nc2-c2cc(Cl)cc(NS(C)(=O)=O)c2F)n1 [encorafenib]
How it was run: as §1

Measured: log2 fold change

ETFRF1 (UniProt Q6IPR1)
inactive: [1] 0.034 | [2] -0.106 | [3] 0.045 | [4] 0.005 | [5] 0.009 | [6] 0.039 | [7] 0.017 | [8] -0.053 | [9] 0.12 | [10] 0.186 | [11] 0.075 | [12] -0.158 | [13] -0.024 | [14] -0.011 | [15] -0.048 | [16] -0.092 | [17] 0.095

FAM160B2 (UniProt Q86V87)
inactive: [18] 0.09 | [5] 0.313 | [9] 0.091 | [12] -0.533 | [19] 0.474 | [20] 0.067

EPS8L2 isoform 3 (UniProt Q9H6S3)
inactive: [18] -0.032 | [3] 0.018 | [4] -0.272 | [8] -0.106 | [10] 0.039 | [11] -0.159 | [13] 0.047 | [14] -0.013 | [19] -0.049 | [16] 0.087 | [20] -0.031

ESRRB isoform 1 (UniProt O95718)
inactive: [18] -0.015 | [4] -0.004 | [6] -0.178 | [8] -0.036 | [10] 0.135 | [12] -0.308 | [14] -0.06 | [15] -0.033 | [19] 0.14 | [16] -0.07 | [20] 0.176 | [17] -0.065

FAM185A (UniProt Q8N0U4)
inactive: [1] 0.027 | [2] -0.019 | [4] 0.002 | [6] 0.166 | [7] 0.024 | [8] -0.05 | [10] -0.059 | [13] 0.07 | [14] -0.072 | [15] -0.084 | [16] 0.036 | [17] -0.045

FAM117B (UniProt Q6P1L5)
inactive: [18] -0.054 | [3] 0.021 | [5] 0.012 | [6] 0.11 | [8] -0.072 | [9] 0.017 | [10] -0.004 | [13] 0.084 | [14] -0.035 | [15] -0.494 | [19] -0.013 | [16] -0.223 | [20] -0.092 | [17] -0.341

FAM126A (UniProt Q9BYI3)
inactive: [18] -0.174 | [3] -0.308 | [4] 0.007 | [14] 0.084 | [19] -0.332 | [20] 0.315

ERN1 (UniProt O75460)
inactive: [1] -0.317 | [2] -0.026 | [3] 0.289 | [4] 0.038 | [5] 0.092 | [8] -0.042 | [9] 0.071 | [10] -0.379 | [11] 0.013 | [13] 0.064 | [14] -0.269 | [16] -0.051

FAM118A (UniProt Q9NWS6)
inactive: [1] -0.54 | [2] 0.136 | [3] 0.118 | [5] -0.075 | [6] 0.222 | [8] -0.007 | [9] -0.142 | [10] -0.138 | [11] -0.135 | [13] 0.029 | [15] -0.179 | [19] 0.29 | [16] 0.068 | [20] -0.172 | [17] -0.079
active: [18] -0.812

ERI3 (UniProt H0Y4B0)
inactive: [18] -0.346 | [3] -0.173 | [4] 0.141 | [7] -0.012 | [11] 0.025 | [14] 0.202 | [19] 0.094 | [20] -0.528

EXOSC10 (UniProt Q01780)
inactive: [18] -0.048 | [1] 0.087 | [3] -0.098 | [5] -0.222 | [6] -0.169 | [8] 0.029 | [9] -0.003 | [10] -0.091 | [11] 0.199 | [13] 0.143 | [14] -0.073 | [15] 0.015 | [19] 0.101 | [16] 0.022 | [20] -0.327 | [17] 0.123

FABP3 (UniProt P05413)
inactive: [18] 0.101 | [19] 0.346 | [20] -0.221

ERAP2 (UniProt Q6P179)
inactive: [1] -0.209 | [2] -0.177 | [3] 0.023 | [4] 0.07 | [8] -0.271 | [10] -0.2 | [14] 0.05 | [16] -0.054

F13A1 (UniProt P00488)
inactive: [18] 0.117 | [2] -0.409 | [7] 0.019 | [8] 0.376 | [10] 0.11 | [13] 0.13 | [19] -0.018 | [16] -0.091 | [20] 0.139

FAM135A (UniProt Q9P2D6)
inactive: [2] -0.068
